Record: PubChem BioAssay AID504793 (Drosophila RNAi Screening Center, 2011)

Screen: 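Whole-genome screen for parts of the DNA damage checkpoint at G2/M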 (primary screen)
Cell system: Drosophila S2R+ cells
Reagents: long dsRNA against Drosophila genes, about 0.25 µg dsRNA per well
Timing: 4 days of dsRNA, then 4 hours of drug before read-out
Challenge: doxorubicin 0.5 µM for 4 hours to cause double-strand breaks, in cells also given a low, harmless dose of dsRNA against nbs to sensitise the assay
Measurement: 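Per-well count of mitotic cells stained for phospho-histone H3 after doxorubicin exposure, used as mitotic index; counts are raw and not normalised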
Reading the numbers: mitotic cells: higher = more cells in mitosis, weaker G2 arrest
Rule for the call: 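Genes are called active only when high mitotic counts were reproduced with independent dsRNAs and mitosis was checked for delay without damage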
Meaning of the calls: active = confirmed in follow-up tests; inactive = not confirmed
The deposit covers about 23,000 reagents; this is an unselected part of those with a known target gene and a result. Over the whole deposit, 62 (0.27%) are marked active. 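Calls come from follow-up tests whose scores are not deposited, so confirmed genes may have low counts here; counts are not normalised per plate.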 Raw values are not corrected between plates. The numbers tell different reagents against one gene apart.

target gene	dsRNA no.	mitotic cells, replicate 1	Call
CG1695	1	6	inactive
CG1695	2	3	inactive
Cpr72Ec	1	9	inactive
Act88F	1	7	inactive
Act88F	2	2	inactive
Eaf6	1	4	inactive
Gr28a	1	2	inactive
CG34445	1	16	inactive
CG43078	1	7	inactive
CG43078	2	11	inactive
CG43078	3	8	inactive
CG43078	4	10	inactive
CG43078	5	3	inactive
Gmer	1	5	inactive
Gmer	2	12	inactive
CG3348	1	14	inactive
ro	1	8	inactive
ro	2	6	inactive
bru2	1	8	inactive
bru2	2	4	inactive
bru2	3	11	inactive
bru2	4	4	inactive
fzr2	1	5	inactive
Bap55	1	12	inactive
pot	1	2	inactive
pot	2	5	inactive
Tnpo-SR	1	7	inactive
CG5790	1	3	inactive
CG5790	2	3	inactive
CG12857	1	4	inactive
CCT7	1	114	inactive
CG13872	1	12	inactive
MtnB	1	6	inactive
MtnB	2	2	inactive
CG42382	1	9	inactive
CG8814	1	2	inactive
CG8814	2	7	inactive
dsd	1	10	inactive
dsd	2	6	inactive
RhoGAP100F	1	10	inactive
RhoGAP100F	2	8	inactive
Scamp	1	15	inactive
Scamp	2	3	inactive
Cpr49Aa	1	3	inactive
CG8461	1	8	inactive
Nepl3	1	6	inactive
CG13332	1	7	inactive

Looked up above:
CG8814 #2, Call: inactive
Under “Call”, Act88F #1 reads inactive
Entry for CG43078 #1 in “mitotic cells, replicate 1”: 7
For “mitotic cells, replicate 1”, RhoGAP100F #2 has 8
bru2 #2, Call → inactive
For “Call”, CG5790 #1 is entered as inactive

The results go on.
target gene	dsRNA no.	mitotic cells, replicate 1	Call
Elba1	1	4	inactive
Elba1	2	3	inactive
Wdr37	1	11	inactive
CG14518	1	13	inactive
CG14518	2	6	inactive
CG13059	1	10	inactive
TpnC25D	1	6	inactive
TpnC25D	2	5	inactive
l(2)34Fd	1	13	inactive
pnr	1	6	inactive
pnr	2	7	inactive
hfp	1	6	inactive
hfp	2	3	inactive
hfp	3	7	inactive
hfp	4	7	inactive
CG17272	1	13	inactive
Chchd3	1	9	inactive
Chchd3	2	10	inactive
beat-Ic	1	4	inactive
beat-Ic	2	2	inactive
beat-Ic	3	5	inactive
HnRNP-K	1	13	inactive
HnRNP-K	2	7	inactive
HnRNP-K	3	13	inactive
HDAC3	1	12	inactive
Vha36-3	1	10	inactive
Vha36-3	2	3	inactive
Cul1	1	26	active
Cul1	2	9	inactive
CG5910	1	1	inactive
Dci	1	13	inactive
Dci	2	5	inactive
wfs1	1	6	inactive
hng1	1	5	inactive
CG13392	1	5	inactive
Hsp110	1	6	inactive
Hsp110	2	6	inactive
CG15464 (retired record)	1	13	inactive
CG15464 (retired record)	2	7	inactive
Sfmbt	1	8	inactive
Sfmbt	2	11	inactive
Hml	1	6	inactive
Mdh2 (retired record)	1	10	inactive
CG14852	1	4	inactive
CG14852	2	1	inactive
jv	1	6	inactive
jv	2	10	inactive
CG3808	1	5	inactive
brn	1	1	inactive
Tgi	1	6	inactive
Tgi	2		inactive
Tgi	3	4	inactive
CG14322	1	8	inactive
Vha26	1	6	inactive
Vha26	2	10	inactive
tbrd-2	1	5	inactive
Lgr4	1	8	inactive
Lgr4	2	10	inactive
Lgr4	3	11	inactive
Ir60b	1	6	inactive
Elp3	1	5	inactive
CG8192	1	7	inactive
CG1674	1	18	inactive
CG1674	2	6	inactive
